Results: the supplement of paper PMC12595434, “Development of retinoid nuclear receptor pathway antagonists through targeting aldehyde dehydrogenase 1A3” (iScience, 2025)
The list shows a part of the results. This is a noisy data set.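 Tm was set to 64 °C where no melting was found, and many curves are irregular.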

Amino acid sequences for entries named in this document (tags omitted). A change or cut given only in a name is not applied to a line headed by its entry.
UniProt Q15154: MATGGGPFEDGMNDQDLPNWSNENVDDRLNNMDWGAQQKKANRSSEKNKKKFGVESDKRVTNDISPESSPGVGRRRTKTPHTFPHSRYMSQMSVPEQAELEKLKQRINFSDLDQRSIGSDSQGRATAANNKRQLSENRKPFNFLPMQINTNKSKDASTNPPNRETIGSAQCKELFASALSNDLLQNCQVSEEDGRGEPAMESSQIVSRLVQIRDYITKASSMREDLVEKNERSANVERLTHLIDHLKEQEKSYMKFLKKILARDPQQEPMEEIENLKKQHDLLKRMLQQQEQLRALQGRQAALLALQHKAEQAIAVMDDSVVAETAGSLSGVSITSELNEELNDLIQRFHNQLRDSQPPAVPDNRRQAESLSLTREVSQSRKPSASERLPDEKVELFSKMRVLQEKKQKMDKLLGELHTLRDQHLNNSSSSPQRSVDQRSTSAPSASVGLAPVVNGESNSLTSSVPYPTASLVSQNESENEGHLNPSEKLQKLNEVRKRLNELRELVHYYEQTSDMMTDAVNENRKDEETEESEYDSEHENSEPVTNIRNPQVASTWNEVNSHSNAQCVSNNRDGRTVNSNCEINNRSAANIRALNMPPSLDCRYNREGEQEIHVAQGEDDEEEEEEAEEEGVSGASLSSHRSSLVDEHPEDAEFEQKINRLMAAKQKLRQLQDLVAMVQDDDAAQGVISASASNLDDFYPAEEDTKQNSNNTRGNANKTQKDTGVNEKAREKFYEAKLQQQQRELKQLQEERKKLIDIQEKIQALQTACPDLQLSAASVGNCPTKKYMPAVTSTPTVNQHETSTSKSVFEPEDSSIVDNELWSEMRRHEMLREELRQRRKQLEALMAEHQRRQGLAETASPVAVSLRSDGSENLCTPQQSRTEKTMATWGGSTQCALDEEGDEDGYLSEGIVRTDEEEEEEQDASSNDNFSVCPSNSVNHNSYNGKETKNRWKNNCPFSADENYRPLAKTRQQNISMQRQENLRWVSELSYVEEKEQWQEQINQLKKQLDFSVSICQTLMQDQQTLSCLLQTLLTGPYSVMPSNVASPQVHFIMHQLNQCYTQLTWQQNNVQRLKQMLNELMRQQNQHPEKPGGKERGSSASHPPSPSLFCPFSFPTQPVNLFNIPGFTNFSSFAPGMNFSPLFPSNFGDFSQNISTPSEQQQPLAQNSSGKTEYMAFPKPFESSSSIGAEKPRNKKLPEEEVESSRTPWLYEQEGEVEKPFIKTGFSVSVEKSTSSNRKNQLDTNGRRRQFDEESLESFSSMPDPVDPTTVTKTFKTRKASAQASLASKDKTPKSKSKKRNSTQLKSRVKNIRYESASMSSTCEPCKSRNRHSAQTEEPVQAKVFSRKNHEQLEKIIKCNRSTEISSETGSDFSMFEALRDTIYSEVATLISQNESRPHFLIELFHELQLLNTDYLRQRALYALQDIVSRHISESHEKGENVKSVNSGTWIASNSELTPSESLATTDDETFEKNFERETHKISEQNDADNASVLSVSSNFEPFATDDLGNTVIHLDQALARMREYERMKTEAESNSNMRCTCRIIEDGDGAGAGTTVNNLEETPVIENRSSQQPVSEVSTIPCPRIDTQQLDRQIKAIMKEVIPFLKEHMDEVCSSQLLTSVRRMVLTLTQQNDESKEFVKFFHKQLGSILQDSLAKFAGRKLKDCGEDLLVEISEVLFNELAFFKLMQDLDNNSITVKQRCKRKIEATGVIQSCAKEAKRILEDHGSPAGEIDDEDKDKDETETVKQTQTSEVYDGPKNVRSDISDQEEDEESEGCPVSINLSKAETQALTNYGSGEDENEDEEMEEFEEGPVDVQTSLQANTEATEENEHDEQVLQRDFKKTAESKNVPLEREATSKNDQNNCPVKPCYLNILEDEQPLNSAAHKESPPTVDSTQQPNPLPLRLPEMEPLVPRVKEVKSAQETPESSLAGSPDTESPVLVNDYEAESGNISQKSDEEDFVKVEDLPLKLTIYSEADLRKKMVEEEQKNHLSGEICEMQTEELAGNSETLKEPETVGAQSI
UniProt Q2M389: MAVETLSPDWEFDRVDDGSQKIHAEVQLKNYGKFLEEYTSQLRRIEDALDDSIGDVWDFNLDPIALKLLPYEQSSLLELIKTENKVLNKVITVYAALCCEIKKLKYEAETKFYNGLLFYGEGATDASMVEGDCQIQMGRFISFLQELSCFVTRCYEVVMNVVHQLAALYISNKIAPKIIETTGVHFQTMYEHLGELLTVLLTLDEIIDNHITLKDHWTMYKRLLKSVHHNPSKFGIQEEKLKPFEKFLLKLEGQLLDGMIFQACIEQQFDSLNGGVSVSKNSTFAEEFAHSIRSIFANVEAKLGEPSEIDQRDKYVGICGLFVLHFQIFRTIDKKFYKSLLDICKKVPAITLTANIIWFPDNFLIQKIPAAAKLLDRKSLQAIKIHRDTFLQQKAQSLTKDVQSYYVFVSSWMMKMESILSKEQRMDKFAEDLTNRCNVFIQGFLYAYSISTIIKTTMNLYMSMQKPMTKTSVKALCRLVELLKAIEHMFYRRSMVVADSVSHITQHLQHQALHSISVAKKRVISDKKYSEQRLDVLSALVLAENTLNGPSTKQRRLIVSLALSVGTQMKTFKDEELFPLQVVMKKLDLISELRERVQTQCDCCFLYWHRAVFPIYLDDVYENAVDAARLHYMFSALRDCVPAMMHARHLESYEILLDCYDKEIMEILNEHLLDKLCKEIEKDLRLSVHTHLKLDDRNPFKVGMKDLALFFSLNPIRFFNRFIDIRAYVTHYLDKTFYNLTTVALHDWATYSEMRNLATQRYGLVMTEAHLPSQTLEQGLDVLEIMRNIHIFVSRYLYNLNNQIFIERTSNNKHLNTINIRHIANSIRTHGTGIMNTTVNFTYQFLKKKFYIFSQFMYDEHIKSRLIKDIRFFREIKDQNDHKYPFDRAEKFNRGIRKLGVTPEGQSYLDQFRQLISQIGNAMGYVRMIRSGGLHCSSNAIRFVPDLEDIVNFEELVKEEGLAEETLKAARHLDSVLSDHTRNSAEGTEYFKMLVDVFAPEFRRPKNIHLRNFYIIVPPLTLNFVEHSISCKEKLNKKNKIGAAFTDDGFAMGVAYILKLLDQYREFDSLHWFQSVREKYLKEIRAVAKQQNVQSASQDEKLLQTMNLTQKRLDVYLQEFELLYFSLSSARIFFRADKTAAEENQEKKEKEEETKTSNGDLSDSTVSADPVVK
UniProt Q16630, whole entry: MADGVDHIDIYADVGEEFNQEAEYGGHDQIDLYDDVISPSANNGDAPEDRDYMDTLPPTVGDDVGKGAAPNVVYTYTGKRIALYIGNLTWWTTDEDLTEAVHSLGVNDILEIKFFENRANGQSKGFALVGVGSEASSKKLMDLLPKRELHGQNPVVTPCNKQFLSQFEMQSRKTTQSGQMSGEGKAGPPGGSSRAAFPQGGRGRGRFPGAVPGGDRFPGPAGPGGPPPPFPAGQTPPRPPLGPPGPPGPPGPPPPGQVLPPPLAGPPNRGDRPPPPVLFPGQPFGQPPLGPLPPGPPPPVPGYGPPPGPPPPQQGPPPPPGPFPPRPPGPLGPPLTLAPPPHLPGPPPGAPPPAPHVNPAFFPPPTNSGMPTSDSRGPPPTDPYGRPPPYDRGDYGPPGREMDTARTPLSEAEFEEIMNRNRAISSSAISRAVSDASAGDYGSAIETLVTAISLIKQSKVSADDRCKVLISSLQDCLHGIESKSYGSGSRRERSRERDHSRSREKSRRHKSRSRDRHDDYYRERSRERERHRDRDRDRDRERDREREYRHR
UniProt Q15102: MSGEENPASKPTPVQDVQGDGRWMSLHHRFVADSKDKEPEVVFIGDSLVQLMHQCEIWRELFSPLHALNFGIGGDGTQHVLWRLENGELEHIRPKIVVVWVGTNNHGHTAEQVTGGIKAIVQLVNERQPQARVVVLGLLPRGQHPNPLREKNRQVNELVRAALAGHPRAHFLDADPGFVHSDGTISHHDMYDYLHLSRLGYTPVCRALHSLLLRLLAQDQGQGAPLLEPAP
UniProt Q155Q3: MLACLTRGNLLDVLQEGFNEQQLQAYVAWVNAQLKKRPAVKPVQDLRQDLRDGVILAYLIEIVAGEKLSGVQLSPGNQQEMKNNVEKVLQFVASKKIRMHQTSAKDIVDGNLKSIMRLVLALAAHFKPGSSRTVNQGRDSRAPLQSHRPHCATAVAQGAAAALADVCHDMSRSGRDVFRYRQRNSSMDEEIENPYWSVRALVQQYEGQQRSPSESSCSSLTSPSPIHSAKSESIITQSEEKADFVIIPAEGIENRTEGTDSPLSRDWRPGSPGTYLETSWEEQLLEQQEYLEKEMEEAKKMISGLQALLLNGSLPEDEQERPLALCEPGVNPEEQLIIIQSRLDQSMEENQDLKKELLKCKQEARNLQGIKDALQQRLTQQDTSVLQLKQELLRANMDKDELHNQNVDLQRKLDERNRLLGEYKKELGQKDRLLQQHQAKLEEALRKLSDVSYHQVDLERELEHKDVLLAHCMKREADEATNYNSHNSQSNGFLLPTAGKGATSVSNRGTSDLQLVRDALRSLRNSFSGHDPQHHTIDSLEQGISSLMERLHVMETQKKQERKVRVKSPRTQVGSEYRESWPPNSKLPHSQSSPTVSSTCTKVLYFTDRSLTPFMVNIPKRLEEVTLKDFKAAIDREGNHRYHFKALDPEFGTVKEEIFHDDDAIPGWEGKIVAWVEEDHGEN
UniProt Q4VC31: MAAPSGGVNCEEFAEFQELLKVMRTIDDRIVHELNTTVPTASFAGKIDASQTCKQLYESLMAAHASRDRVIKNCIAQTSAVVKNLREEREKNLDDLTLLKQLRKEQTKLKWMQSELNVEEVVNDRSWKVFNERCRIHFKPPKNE
UniProt Q330K2: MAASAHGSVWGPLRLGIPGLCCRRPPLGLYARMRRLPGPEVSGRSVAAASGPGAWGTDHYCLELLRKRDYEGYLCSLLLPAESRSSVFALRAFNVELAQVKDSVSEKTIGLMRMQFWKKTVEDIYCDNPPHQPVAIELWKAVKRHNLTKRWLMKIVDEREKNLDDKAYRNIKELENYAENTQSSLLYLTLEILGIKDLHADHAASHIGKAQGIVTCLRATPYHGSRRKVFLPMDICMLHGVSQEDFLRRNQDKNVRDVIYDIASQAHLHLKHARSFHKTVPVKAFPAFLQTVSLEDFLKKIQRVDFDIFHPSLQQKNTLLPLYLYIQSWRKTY
UniProt Q15631: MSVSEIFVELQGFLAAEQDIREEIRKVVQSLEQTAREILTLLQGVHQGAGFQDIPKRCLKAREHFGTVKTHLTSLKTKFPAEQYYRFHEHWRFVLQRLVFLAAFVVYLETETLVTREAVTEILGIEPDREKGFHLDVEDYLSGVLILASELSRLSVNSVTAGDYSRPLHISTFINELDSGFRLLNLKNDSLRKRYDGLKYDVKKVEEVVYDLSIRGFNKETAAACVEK
UniProt Q15361: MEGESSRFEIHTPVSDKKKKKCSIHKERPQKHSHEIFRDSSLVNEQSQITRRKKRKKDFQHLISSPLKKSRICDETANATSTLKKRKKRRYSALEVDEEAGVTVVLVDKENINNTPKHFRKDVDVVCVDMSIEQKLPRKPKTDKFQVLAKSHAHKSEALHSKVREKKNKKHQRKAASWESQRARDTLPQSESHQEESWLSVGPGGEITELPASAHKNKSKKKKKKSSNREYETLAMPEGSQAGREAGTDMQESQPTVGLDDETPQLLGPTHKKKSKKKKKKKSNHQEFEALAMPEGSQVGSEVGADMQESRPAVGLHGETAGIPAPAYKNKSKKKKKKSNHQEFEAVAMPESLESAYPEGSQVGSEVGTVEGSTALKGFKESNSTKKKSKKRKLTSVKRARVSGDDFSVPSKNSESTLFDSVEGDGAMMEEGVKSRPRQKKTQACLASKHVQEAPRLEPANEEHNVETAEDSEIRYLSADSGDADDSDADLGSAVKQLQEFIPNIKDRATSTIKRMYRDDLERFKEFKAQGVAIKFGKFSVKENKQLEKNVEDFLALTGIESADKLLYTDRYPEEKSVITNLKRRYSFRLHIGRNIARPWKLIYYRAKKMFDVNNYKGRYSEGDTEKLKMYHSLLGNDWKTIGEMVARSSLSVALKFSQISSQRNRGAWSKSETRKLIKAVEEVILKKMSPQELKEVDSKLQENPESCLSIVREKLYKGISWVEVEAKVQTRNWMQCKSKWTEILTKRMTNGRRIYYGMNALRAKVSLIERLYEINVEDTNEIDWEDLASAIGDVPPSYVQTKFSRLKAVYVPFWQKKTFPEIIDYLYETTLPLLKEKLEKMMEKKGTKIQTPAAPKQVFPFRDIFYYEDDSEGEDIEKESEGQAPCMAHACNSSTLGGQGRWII

Compound: CCc1cnccc1C(=O)Nc1cc2c(cc1F)NC(=O)CC2
Test: melting temperature shift (DMSO Tm minus MBE1-treated Tm) in cellular thermal proteome profiling; higher = less thermal stabilization by MBE1 (negative = stabilized by MBE1)
Details: A375

| Target | melting temperature shift (MBE1 concentration: 100 nM) | melting temperature shift (MBE1 concentration: 1 uM) |
| --- | --- | --- |
| TERF2 (UniProt Q15554) | -0.0672 °C | -0.208 °C |
| UniProt Q53EU6 | 0.708 °C | 0.397 °C |
| PCM1 (UniProt Q15154) | -0.208 °C | 0.159 °C |
| KIAA1033 (UniProt Q2M389) | -0.0188 °C | -0.169 °C |
| TARBP2 (UniProt Q15633) | 0.302 °C | -1.16 °C |
| PDK1 (UniProt Q15118) | -0.0977 °C | 0.177 °C |
| ANO6 (UniProt Q4KMQ2) | -0.147 °C | -0.116 °C |
| CPSF6 (UniProt Q16630) | -1.05 °C | -1.3 °C |
| PCBP2 (UniProt Q15366) | -0.48 °C | -0.416 °C |
| PLEC (UniProt Q15149) | 0.739 °C | -0.232 °C |
| PAFAH1B3 (UniProt Q15102) | 0.366 °C | 1.07 °C |
| MRPL51 (UniProt Q4U2R6) | -1.83 °C | -2.54 °C |
| TRIP10 (UniProt Q15642) | 0.263 °C | -0.202 °C |
| DDB1 (UniProt Q16531) | -0.378 °C | -0.839 °C |
| UniProt Q155Q3 | -1.29 °C | -0.0833 °C |
| SF3A2 (UniProt Q15428) | 0.678 °C | 0.488 °C |
| MAPRE2 (UniProt Q15555) | -0.699 °C | 0.25 °C |
| CCDC58 (UniProt Q4VC31) | -0.874 °C | 0.64 °C |
| NDUFAF6 (UniProt Q330K2) | 0.714 °C | 0.891 °C |
| TSN (UniProt Q15631) | -4.18 °C | 1.36 °C |
| RABEP1 (UniProt Q15276) | 0.342 °C | 0.165 °C |
| UniProt Q15361 | 0.0128 °C | 0.5 °C |

Shown tab-delimited: entries from further up.
Target	melting temperature shift (MBE1 concentration: 100 nM)	melting temperature shift (MBE1 concentration: 1 uM)
PAFAH1B3 (UniProt Q15102)	0.366 °C	1.07 °C
DDB1 (UniProt Q16531)	-0.378 °C	-0.839 °C
